Taken from: PubChem BioAssay AID1259308 (NCATS, 2017)
The deposit covers about 59,000 reagents; below is a part drawn at random. About 1,510 of them (2.6%) count as active. 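Calls use total luciferase alone and ignore viability, so some active siRNAs may act by altering cell number.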 Reagents against one gene are numbered here. Further read-outs or replicates are left out here.

- Screen: 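Candidate targets for better recombinant protein yield in mammalian cells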 (primary screen)
- Cell system: human HEK293 embryonic kidney cells stably expressing firefly luciferase (HEK-CMV-Luc2-Hygro)
- Reagents: single siRNA against human genes, 0.8 pmol siRNA per well
- Time to read-out: 72 h
- Detection: 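Luciferase light (ONE-Glo) measured on one replicate plate set and viability (CellTiter-Glo) on the other, scaled to a negative control siRNA, with robust z-scores and luciferase per cell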
- Reading the numbers: total luciferase, z-score: higher = more reporter protein produced
- Rule for the call: 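An siRNA counts as active if its total luciferase robust z-score exceeds 3; genes with two or more such siRNAs out of three were retested with fresh siRNAs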
- Meaning of the calls: active = raised luciferase; inactive = no rise

The first 3 entries, to show the layout:
| gene | siRNA no. | total luciferase, z-score | activity call |
| --- | --- | --- | --- |
| KLK11 (kallikrein related peptidase 11) | 1 | 0.777 | inactive |
| KLK11 (kallikrein related peptidase 11) | 2 | 1.31 | inactive |
| KLK11 (kallikrein related peptidase 11) | 3 | 2.76 | inactive |

Results, repeating the preview:
| gene | siRNA no. | total luciferase, z-score | activity call |
| --- | --- | --- | --- |
| KLK11 (kallikrein related peptidase 11) | 1 | 0.777 | inactive |
| KLK11 (kallikrein related peptidase 11) | 2 | 1.31 | inactive |
| KLK11 (kallikrein related peptidase 11) | 3 | 2.76 | inactive |
| STARD8 (StAR related lipid transfer domain containing 8) | 1 | 0.0601 | inactive |
| STARD8 (StAR related lipid transfer domain containing 8) | 2 | 1.11 | inactive |
| STARD8 (StAR related lipid transfer domain containing 8) | 3 | 0.187 | inactive |
| HNRNPA1P35 (heterogeneous nuclear ribonucleoprotein A1 pseudogene 35) | 1 | -0.577 | inactive |
| HNRNPA1P35 (heterogeneous nuclear ribonucleoprotein A1 pseudogene 35) | 2 | -0.537 | inactive |
| HNRNPA1P35 (heterogeneous nuclear ribonucleoprotein A1 pseudogene 35) | 3 | 2.42 | inactive |
| GLI1 (GLI family zinc finger 1) | 1 | -0.374 | inactive |
| GLI1 (GLI family zinc finger 1) | 2 | 0.211 | inactive |
| GLI1 (GLI family zinc finger 1) | 3 | -1.7 | inactive |
| NPIPB7 (nuclear pore complex interacting protein family member B7) | 1 | 1 | inactive |
| NPIPB7 (nuclear pore complex interacting protein family member B7) | 2 | -1.16 | inactive |
| NPIPB7 (nuclear pore complex interacting protein family member B7) | 3 | -0.826 | inactive |
| MDH1 (malate dehydrogenase 1) | 1 | -1.17 | inactive |
| MDH1 (malate dehydrogenase 1) | 2 | -0.0393 | inactive |
| MDH1 (malate dehydrogenase 1) | 3 | 0.672 | inactive |
| IL20RB (interleukin 20 receptor subunit beta) | 1 | -1.42 | inactive |
| IL20RB (interleukin 20 receptor subunit beta) | 2 | -2.35 | inactive |
| IL20RB (interleukin 20 receptor subunit beta) | 3 | 0.404 | inactive |
| LINC01559 (long independently transcribed non-coding RNA 1559) | 1 | -0.0319 | inactive |
| LINC01559 (long independently transcribed non-coding RNA 1559) | 2 | 0.385 | inactive |
| LINC01559 (long independently transcribed non-coding RNA 1559) | 3 | 0.577 | inactive |
